In PMC6747193 one finds binding data, which are given here for one substance.

Sequences of proteins named here, by UniProt entry; tags and fusion partners are left off. Residues count along the entry.
UniProt P0DQD2, residues 36-321: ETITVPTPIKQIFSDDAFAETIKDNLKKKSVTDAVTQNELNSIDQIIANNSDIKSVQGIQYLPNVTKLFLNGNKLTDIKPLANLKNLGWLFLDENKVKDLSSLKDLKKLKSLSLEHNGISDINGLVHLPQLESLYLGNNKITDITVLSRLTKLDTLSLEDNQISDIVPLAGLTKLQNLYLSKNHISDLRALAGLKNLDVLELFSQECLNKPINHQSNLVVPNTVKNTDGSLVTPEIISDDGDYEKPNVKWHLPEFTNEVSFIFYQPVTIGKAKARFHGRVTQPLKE

The experiment has as its target InlB internalin domain isoform idInlB13 (lineage II, from L. monocytogenes type strain EGDe) (Listeria monocytogenes) (UniProt P0DQD2). The experiment can be described thus: SEC; Superdex 200 10/300 GL, PBS buffer, flow rate 0.4 mL/min, elution monitored by fluorescence emission at 340 nm (excitation 280 nm); both purified. In general terms: Size exclusion chromatography separates by hydrodynamic size, large species first.

These are yes or no findings as the source states them, for the method shown.

In the case of “InlB internalin domain isoform idInlB13 (lineage II, from L. monocytogenes type strain EGDe) (from UniProt P0DQD2 36-321) (domain or fragment)”, the binding result is given as “no binding”.
